For experiment [1], the target named is T1, chemokine receptor CCR1 (UniProt P32246).
T1 sequence: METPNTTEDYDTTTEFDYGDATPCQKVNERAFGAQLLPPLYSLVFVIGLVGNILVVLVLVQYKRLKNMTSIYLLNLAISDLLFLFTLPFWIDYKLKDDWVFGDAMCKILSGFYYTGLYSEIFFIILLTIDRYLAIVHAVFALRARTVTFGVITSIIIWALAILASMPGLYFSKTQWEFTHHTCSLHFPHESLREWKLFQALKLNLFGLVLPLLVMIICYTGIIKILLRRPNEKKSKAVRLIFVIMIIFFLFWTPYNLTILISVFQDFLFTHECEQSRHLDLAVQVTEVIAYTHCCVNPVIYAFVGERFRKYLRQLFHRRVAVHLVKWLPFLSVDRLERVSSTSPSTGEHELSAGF
Put plainly: co-IP; as a1, cells stimulated with CCL5 protein (CCL5-activated CCR1).

The chains behind the UniProt entries cited, without tags or fusion partners.
UniProt P32121: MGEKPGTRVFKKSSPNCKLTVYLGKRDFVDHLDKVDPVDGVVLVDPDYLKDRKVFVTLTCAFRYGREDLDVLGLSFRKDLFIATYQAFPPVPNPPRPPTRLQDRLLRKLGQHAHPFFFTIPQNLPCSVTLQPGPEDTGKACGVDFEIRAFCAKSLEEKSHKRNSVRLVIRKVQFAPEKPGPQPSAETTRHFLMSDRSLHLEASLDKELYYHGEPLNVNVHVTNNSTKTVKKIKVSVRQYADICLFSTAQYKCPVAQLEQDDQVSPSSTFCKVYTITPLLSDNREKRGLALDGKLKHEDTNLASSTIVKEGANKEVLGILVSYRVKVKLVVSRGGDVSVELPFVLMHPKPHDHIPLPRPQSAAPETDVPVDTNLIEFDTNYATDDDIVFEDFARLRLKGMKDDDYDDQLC

Experiment [2] has as its target T1, chemokine receptor CCR1. Put plainly: co-IP; A549 cells cotransfected with CCR1 and Gαi or β-arrestin 2 plasmids, with or without CCL5 protein; Pierce classic magnetic IP/co-IP kit, lysate with the corresponding antibody overnight at 4°C, protein A/G beads, Western blot; precipitating antibody not named. (In general: In western blotting, separated proteins are transferred to a membrane and probed.)

No constants are given. Whether binding was seen depends on the method and setting. In cells and extracts the contact can be indirect. Some entries that bind do so weakly or less than the wild type.

As to “β-arrestin 2 (from UniProt P32121 1-409)”, the results for the binding result in experiment [1] and in experiment [2] were “binds weakly” and “binds”, respectively.

The record behind these values is article PMC9682993.
